In patent US12102089B2, “Method for inactivating mold spores” (DSM IP ASSETS B.V., priority 2017, dated 2024):
Further values from the same series stand in other lists.

Tested on: Talaromyces emersonii (CBS 236.58)
Assay: Heat treatment of Talaromyces emersonii spores in ice tea with natamycin, visual growth
Assay type: cell-based
Parameters: key: growth (+); no growth (−)
Protocol: Commercially available ice tea (Lipton, peach flavor, non-carbonated, 1.5 L) was adjusted to high water hardness by adding 1 ml of a solution of 39 g CaCl2 and 27 g MgCl2 added to 934 g water. ⅓ of this ice tea preparation (the pH of which was 3.15) was left as-such, ⅓ of the preparation was enriched with 5 ppm natamycin and ⅓ of the preparation was enriched with 10 ppm natamycin. Samples of 5 ml were made from each preparation in 15 ml sterile plastic tubes. Of each preparation 8 samples were pre-heated to the desired pasteurization temperature using a water bath. Temperatures used were RT, 60, 65, 70, 75, 80, 85 and 90° C. When the desired temperature was reached, 100 μl of a 2500 spores/ml spore suspension of Aspergillus niger ATCC 9029AA was added to each tube. Subsequently, the samples were kept for 30 seconds at the temperature in question in the water bath. Next, the samples were cooled on ice to a temperature of 25° C. Samples were incubated at 25° C. and visually examined for growth (formation of mold flakes or turbidity) for two months. Additionally, samples were enumerated according to ISO protocol 21527-1.2008 on day 0 (before heat treatment) and day 1 (after heat treatment) to count immediate loss of viability. […] For the results, see Table 1. […] Example 1 was repeated however with Talaromyces emersonii (CBS 236.58, 1000 spores/ml) instead of Aspergillus niger.

C[C@@H]1C/C=C/C=C/C=C/C=C/[C@H](O[C@@H]2O[C@H](C)[C@@H](O)[C@H](N)[C@@H]2O)C[C@@H]2O[C@](O)(C[C@@H](O)C[C@H]3O[C@@H]3/C=C/C(=O)O1)C[C@H](O)[C@H]2C(=O)O [natamycin]
growth or no growth (75°C, 5 ppm, day 1): − | growth or no growth (75°C, 5 ppm, day 2): − | growth or no growth (75°C, 5 ppm, day 3): − | growth or no growth (75°C, 5 ppm, day 4): + | growth or no growth (75°C, 5 ppm, day 5): + | growth or no growth (75°C, 5 ppm, day 6): + | growth or no growth (75°C, 5 ppm, day 7): + | growth or no growth (75°C, 5 ppm, day 8): + | growth or no growth (75°C, 5 ppm, day 11): + | growth or no growth (75°C, 5 ppm, day 12): + | growth or no growth (75°C, 5 ppm, day 13): + | growth or no growth (75°C, 5 ppm, day 14): + | growth or no growth (75°C, 10 ppm, day 1): − | growth or no growth (75°C, 10 ppm, day 2): − | growth or no growth (75°C, 10 ppm, day 3): − | growth or no growth (75°C, 10 ppm, day 4): − | growth or no growth (75°C, 10 ppm, day 5): − | growth or no growth (75°C, 10 ppm, day 6): − | growth or no growth (75°C, 10 ppm, day 7): − | growth or no growth (75°C, 10 ppm, day 8): − | growth or no growth (75°C, 10 ppm, day 9): − | growth or no growth (75°C, 10 ppm, day 10): − | growth or no growth (75°C, 10 ppm, day 11): − | growth or no growth (75°C, 10 ppm, day 12): − | growth or no growth (75°C, 10 ppm, day 13): − | growth or no growth (75°C, 10 ppm, day 14): − | growth or no growth (80°C, 5 ppm, day 1): − | growth or no growth (80°C, 5 ppm, day 2): − | growth or no growth (80°C, 5 ppm, day 3): − | growth or no growth (80°C, 5 ppm, day 4): − | growth or no growth (80°C, 5 ppm, day 5): − | growth or no growth (80°C, 5 ppm, day 6): − | growth or no growth (80°C, 5 ppm, day 7): − | growth or no growth (80°C, 5 ppm, day 8): − | growth or no growth (80°C, 5 ppm, day 9): − | growth or no growth (80°C, 5 ppm, day 10): − | growth or no growth (80°C, 5 ppm, day 11): − | growth or no growth (80°C, 5 ppm, day 12): − | growth or no growth (80°C, 5 ppm, day 13): − | growth or no growth (80°C, 5 ppm, day 14): − | growth or no growth (80°C, 10 ppm, day 1): − | growth or no growth (80°C, 10 ppm, day 2): − | growth or no growth (80°C, 10 ppm, day 3): − | growth or no growth (80°C, 10 ppm, day 4): − | growth or no growth (80°C, 10 ppm, day 5): − | growth or no growth (80°C, 10 ppm, day 6): − | growth or no growth (80°C, 10 ppm, day 7): − | growth or no growth (80°C, 10 ppm, day 8): − | growth or no growth (80°C, 10 ppm, day 9): − | growth or no growth (80°C, 10 ppm, day 10): − | growth or no growth (80°C, 10 ppm, day 11): − | growth or no growth (80°C, 10 ppm, day 12): − | growth or no growth (80°C, 10 ppm, day 13): − | growth or no growth (80°C, 10 ppm, day 14): − | growth or no growth (85°C, 5 ppm, day 1): − | growth or no growth (85°C, 5 ppm, day 2): − | growth or no growth (85°C, 5 ppm, day 3): − | growth or no growth (85°C, 5 ppm, day 4): − | growth or no growth (85°C, 5 ppm, day 5): − | growth or no growth (85°C, 5 ppm, day 6): − | growth or no growth (85°C, 5 ppm, day 7): − | growth or no growth (85°C, 5 ppm, day 8): − | growth or no growth (85°C, 5 ppm, day 9): − | growth or no growth (85°C, 5 ppm, day 10): − | growth or no growth (85°C, 5 ppm, day 11): − | growth or no growth (85°C, 5 ppm, day 12): − | growth or no growth (85°C, 5 ppm, day 13): − | growth or no growth (85°C, 5 ppm, day 14): − | growth or no growth (85°C, 10 ppm, day 1): − | growth or no growth (85°C, 10 ppm, day 2): − | growth or no growth (85°C, 10 ppm, day 3): − | growth or no growth (85°C, 10 ppm, day 4): − | growth or no growth (85°C, 10 ppm, day 5): − | growth or no growth (85°C, 10 ppm, day 6): − | growth or no growth (85°C, 10 ppm, day 7): − | growth or no growth (85°C, 10 ppm, day 8): − | growth or no growth (85°C, 10 ppm, day 9): − | growth or no growth (85°C, 10 ppm, day 10): − | growth or no growth (85°C, 10 ppm, day 11): − | growth or no growth (85°C, 10 ppm, day 12): − | growth or no growth (85°C, 10 ppm, day 13): − | growth or no growth (85°C, 10 ppm, day 14): − | growth or no growth (90°C, 5 ppm, day 1): − | growth or no growth (90°C, 5 ppm, day 2): − | growth or no growth (90°C, 5 ppm, day 3): − | growth or no growth (90°C, 5 ppm, day 4): − | growth or no growth (90°C, 5 ppm, day 5): − | growth or no growth (90°C, 5 ppm, day 6): − | growth or no growth (90°C, 5 ppm, day 7): − | growth or no growth (90°C, 5 ppm, day 8): − | growth or no growth (90°C, 5 ppm, day 9): − | growth or no growth (90°C, 5 ppm, day 10): − | growth or no growth (90°C, 5 ppm, day 11): − | growth or no growth (90°C, 5 ppm, day 12): − | growth or no growth (90°C, 5 ppm, day 13): − | growth or no growth (90°C, 5 ppm, day 14): − | growth or no growth (90°C, 10 ppm, day 1): − | growth or no growth (90°C, 10 ppm, day 2): − | growth or no growth (90°C, 10 ppm, day 3): − | growth or no growth (90°C, 10 ppm, day 4): − | growth or no growth (90°C, 10 ppm, day 5): − | growth or no growth (90°C, 10 ppm, day 6): − | growth or no growth (90°C, 10 ppm, day 7): − | growth or no growth (90°C, 10 ppm, day 8): − | growth or no growth (90°C, 10 ppm, day 9): − | growth or no growth (90°C, 10 ppm, day 10): − | growth or no growth (90°C, 10 ppm, day 11): − | growth or no growth (90°C, 10 ppm, day 12): − | growth or no growth (90°C, 10 ppm, day 13): − | growth or no growth (90°C, 10 ppm, day 14): − | growth or no growth (RT, 5 ppm, day 1): − | growth or no growth (RT, 5 ppm, day 2): − | growth or no growth (RT, 5 ppm, day 3): − | growth or no growth (RT, 5 ppm, day 4): − | growth or no growth (RT, 5 ppm, day 5): − | growth or no growth (RT, 5 ppm, day 6): − | growth or no growth (RT, 5 ppm, day 7): + | growth or no growth (RT, 5 ppm, day 8): + | growth or no growth (RT, 5 ppm, day 9): + | growth or no growth (RT, 5 ppm, day 10): + | growth or no growth (RT, 5 ppm, day 11): + | growth or no growth (RT, 5 ppm, day 12): + | growth or no growth (RT, 5 ppm, day 13): + | growth or no growth (RT, 5 ppm, day 14): +
